Results from publication PMC11082164.
Results are given in words; binding and its absence hold for the method and conditions named. Binding seen in cells or lysates may run through a third protein. Some results given as binding are weak or reduced against the parent protein; the word gives no strength. Sequences can lack the tags named with a protein.

The chains behind the UniProt entries cited, without tags or fusion partners.
UniProt P15311: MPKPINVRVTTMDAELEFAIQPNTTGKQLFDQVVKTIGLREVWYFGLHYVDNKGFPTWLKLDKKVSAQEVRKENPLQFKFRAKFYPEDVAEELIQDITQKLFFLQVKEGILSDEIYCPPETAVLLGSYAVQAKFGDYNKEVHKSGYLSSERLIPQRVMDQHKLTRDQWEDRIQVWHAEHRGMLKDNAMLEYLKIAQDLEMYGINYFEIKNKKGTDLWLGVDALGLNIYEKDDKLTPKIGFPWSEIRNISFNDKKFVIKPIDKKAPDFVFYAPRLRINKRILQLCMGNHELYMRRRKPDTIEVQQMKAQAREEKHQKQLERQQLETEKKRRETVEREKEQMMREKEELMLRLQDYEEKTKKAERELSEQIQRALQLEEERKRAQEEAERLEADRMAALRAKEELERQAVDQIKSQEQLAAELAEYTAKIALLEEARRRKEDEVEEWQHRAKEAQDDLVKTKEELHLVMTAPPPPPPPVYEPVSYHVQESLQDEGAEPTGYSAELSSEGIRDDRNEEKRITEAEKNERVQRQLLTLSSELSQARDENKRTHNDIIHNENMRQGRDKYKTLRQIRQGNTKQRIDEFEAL
UniProt P26038: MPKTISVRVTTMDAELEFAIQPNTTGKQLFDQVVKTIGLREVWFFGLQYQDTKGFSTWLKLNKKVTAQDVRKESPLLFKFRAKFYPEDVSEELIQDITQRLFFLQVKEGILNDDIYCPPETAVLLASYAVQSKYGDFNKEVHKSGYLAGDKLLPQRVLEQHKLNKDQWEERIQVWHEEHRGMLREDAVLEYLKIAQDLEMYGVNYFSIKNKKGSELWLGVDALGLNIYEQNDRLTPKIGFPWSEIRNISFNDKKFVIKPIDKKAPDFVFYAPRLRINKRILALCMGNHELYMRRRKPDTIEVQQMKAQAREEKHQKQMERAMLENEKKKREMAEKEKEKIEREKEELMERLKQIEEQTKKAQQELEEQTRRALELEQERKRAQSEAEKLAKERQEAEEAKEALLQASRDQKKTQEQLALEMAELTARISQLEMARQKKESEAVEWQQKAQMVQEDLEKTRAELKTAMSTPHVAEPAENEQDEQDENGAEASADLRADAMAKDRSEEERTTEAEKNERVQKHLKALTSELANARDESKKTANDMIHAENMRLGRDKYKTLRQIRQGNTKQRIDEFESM

Key:
GFP-Amphiphysin1 (human) = molecular target: T1, GFP-Amphiphysin1 (human) (UniProt P49418); test: co-IP; GFP-Trap beads on extracts of transfected HeLa cells, 3 h at 4 °C in lysis buffer (25 mM Tris pH 7.5, 50-100 or 200 mM NaCl, 0.1% NP40), four washes; endogenous partner detected by western blot
T1 sequence: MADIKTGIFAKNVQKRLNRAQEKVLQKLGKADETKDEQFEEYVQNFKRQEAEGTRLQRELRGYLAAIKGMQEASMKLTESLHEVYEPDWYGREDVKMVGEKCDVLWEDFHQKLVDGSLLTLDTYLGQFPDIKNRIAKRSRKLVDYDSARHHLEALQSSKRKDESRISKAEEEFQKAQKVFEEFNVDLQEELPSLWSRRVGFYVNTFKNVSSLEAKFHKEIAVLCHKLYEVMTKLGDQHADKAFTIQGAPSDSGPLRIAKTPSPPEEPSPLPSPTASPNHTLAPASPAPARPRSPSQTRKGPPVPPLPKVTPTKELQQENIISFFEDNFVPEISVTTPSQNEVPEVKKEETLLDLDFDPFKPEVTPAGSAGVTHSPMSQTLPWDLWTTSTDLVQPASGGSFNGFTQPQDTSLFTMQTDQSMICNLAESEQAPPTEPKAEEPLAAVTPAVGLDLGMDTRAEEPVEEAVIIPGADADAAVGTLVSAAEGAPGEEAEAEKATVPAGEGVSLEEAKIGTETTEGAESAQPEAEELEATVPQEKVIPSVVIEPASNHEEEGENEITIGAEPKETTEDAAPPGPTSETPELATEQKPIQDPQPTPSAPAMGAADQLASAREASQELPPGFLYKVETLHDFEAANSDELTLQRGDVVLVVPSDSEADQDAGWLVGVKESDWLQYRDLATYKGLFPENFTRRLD

[1] = molecular target: T2, GFP-BIN1 isoform 1 (human) (UniProt O00499); test: as above
T2 sequence: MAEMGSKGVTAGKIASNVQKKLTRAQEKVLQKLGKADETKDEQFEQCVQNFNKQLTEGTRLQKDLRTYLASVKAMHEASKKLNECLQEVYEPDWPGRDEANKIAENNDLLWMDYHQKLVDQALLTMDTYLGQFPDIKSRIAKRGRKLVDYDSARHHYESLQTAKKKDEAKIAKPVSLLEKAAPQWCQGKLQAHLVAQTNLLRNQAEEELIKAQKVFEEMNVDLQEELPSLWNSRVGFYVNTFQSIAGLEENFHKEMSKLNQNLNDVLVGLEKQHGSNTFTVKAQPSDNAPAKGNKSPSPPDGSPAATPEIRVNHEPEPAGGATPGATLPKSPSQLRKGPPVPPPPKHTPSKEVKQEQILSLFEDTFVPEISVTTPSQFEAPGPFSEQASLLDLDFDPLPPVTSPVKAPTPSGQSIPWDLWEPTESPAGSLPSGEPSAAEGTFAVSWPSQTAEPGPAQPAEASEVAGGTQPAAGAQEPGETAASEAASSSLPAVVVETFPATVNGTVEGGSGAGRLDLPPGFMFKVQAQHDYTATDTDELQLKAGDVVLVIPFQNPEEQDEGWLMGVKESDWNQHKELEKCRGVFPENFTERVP

ezrin (endogenous, HeLa) (from UniProt P15311 1-586)
binding (GFP-Amphiphysin1 (human)): no binding | binding [1]: no binding

moesin (endogenous, HeLa) (from UniProt P26038 1-577)
binding [1]: binds
